# Over roughly 33,000 sequences, “E-score (-0.5 to 0.5)” has its median near -0.016; the highest 2% begin near 0.3. This is one part of the list.
# Target: T1, Yer184c (UniProt P39961)
# T1 sequence: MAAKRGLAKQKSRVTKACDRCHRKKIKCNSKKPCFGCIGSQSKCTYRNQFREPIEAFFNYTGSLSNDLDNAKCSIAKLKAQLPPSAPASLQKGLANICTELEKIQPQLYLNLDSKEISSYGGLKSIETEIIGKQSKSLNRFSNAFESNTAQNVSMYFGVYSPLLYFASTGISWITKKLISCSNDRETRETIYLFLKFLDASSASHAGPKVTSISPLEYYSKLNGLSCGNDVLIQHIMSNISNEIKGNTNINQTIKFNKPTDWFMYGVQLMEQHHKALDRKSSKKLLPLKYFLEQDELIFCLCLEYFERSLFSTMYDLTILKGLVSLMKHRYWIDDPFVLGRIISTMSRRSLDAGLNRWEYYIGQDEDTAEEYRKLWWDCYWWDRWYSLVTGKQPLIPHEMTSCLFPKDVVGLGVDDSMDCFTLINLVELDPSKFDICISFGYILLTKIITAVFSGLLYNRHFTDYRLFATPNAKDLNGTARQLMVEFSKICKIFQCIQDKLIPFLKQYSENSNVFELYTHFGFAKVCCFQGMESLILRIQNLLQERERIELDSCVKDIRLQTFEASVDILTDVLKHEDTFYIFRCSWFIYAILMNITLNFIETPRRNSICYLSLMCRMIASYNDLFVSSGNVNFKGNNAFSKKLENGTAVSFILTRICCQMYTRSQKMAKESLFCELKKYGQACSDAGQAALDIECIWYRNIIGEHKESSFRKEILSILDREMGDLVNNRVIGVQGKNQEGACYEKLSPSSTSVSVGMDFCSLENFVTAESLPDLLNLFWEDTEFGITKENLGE
# Experiment: PBM E-score (8-mer binding enrichment) (E-score (-0.5 to 0.5)); higher = stronger / more preferred TF binding
# Conditions: protein concentration: 100 nM; construct: GST-full length
# Method in brief: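 Full-length yeast transcription factors or their DNA-binding domains, GST-tagged and expressed with PURExpress, were applied at about 100-200 nM to universal all-10-mer Agilent arrays. These arrays had been made double-stranded by primer extension on fresh or once-stripped slides. Detection used fluorescent anti-GST, normalisation used masliner, and E-scores for ungapped eight-base words pooled with reverse complements came from the Universal PBM Analysis Suite.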
row,Sequence,PBM E-score
1,CCTGGGCG,-0.191
2,GGAGCTCC,-0.106
3,GGTCGGCA,0.112
4,AAGAGGCT,-0.281
5,ACATCTTC,0.122
6,GATCGCGC,0.024
7,TCCCTAGA,0.079
8,CGTTCATA,-0.0483
9,CAACCTGA,-0.12
10,CACGATAA,0.278
11,CATGCCGC,0.181
12,ATACAACC,-0.00525
13,ACCGATGA,0.0642
14,CCCATTCA,-0.147
15,ACTTGAAA,0.107
16,ATGGCCGC,-0.008
17,AGGTTGTG,-0.0954
18,CACGTAGA,-0.153
19,CGTTTGGC,-0.0155
20,GAACCCCA,-0.184
21,CGACTAAC,0.168
22,GCATACTA,-0.0368
23,CCTACCAG,-0.314
24,CCTAGCTA,-0.344
25,CCGGGTCA,0.173

# Random excerpt: 2 entries already listed.
row,Sequence,PBM E-score
23,CCTACCAG,-0.314
20,GAACCCCA,-0.184

# Next entries

row,Sequence,PBM E-score
1,CAGAAAGA,0.0767
2,CACATTTA,-0.133
3,TGAAATCA,0.212
4,GCCCTCTA,-0.243
5,AGCATAAT,0.117
6,AAAACATG,0.021
7,CAGTTACA,0.0126
8,ACGCTCAG,-0.0976
9,GCAGGGCA,-0.0295
10,CTCTCGAC,-0.202
11,AGCTGATC,0.103
12,GCGATTCA,-0.0996
13,CGGTACAG,0.101
14,CCGATCTC,0.135
15,AAGGACCT,-0.017
16,CGGTTAAG,0.269
17,AGTGAATC,0.00528
18,GCAAGAGC,-0.114
19,CACATCCG,0.282
20,GAATCCCC,-0.148
21,GCCAGTCA,-0.181
22,ACTCAGTC,-0.152
23,CGATGACG,-0.142
24,ATCATCGA,0.0277
25,ATAGAACG,0.184

row,Sequence,PBM E-score
1,TACGCAAA,0.0579
2,AGTCGAGA,-0.00587
3,TAGTGGCA,-0.174
4,AAAGGCAG,0.09
5,CAACGATC,-0.0251
6,TCAACGGA,0.315
7,CGACGGGA,0.044
8,AGTAGTAA,0.137
9,AGATATCG,-0.143
10,AGGGACCG,-0.165
11,CTCTTGAA,-0.0697
12,CACTGTGA,-0.0529
13,AATTAGAC,0.154
14,ATGACTAG,-0.24
15,ATTGGTCA,-0.159
16,AGGAGCGA,-0.0501
17,ATCCGGCA,0.296
18,GCCTGGTA,-0.137
19,ACCACACG,-0.164
20,CATGGAGG,-0.216
21,CTAGCGCC,0.00613
22,GGTCTAAC,-0.0821
23,GCCGAGAA,0.368
24,AGTTTCTA,0.0648
25,CTTTCAGC,0.0492

# Exported tab-delimited: part of the list above
row	Sequence	PBM E-score
8	CGTTCATA	-0.0483
9	CAACCTGA	-0.12
10	CACGATAA	0.278
11	CATGCCGC	0.181
12	ATACAACC	-0.00525
13	ACCGATGA	0.0642

# Next part.

row,Sequence,PBM E-score
1,TCGATTAA,0.148
2,AGTGCGCC,-0.0283
3,CGGCTATA,0.282
4,AACCCCTT,-0.0656
5,CTCCAAAA,-0.13
6,CAAGCACC,-0.355
7,CTTACCTA,-0.0506
8,GACTCGAC,-0.0811
9,ATTTGGTC,0.105
10,ACATAACC,-0.0194
11,ACGCATCC,-0.142
12,CCTTTTGA,0.0921
13,CAGCGTGG,-0.18
14,CACTACCA,-0.0681
15,AAGTGTGC,0.0256
16,GCTGTTAC,-0.0967
17,AACCAACT,-0.0133
18,GTAGAGAC,-0.161
19,GATTAGAA,0.0453
20,CTTCAGAC,-0.0721
21,CTATGTTA,0.0907
22,CCGTTTAC,0.241
23,CATGTACA,-0.117
24,CACGGCTC,0.123
25,GCGTACAA,-0.0543

# A second format for some results above.
row	Sequence	PBM E-score
6	TCAACGGA	0.315
7	CGACGGGA	0.044
8	AGTAGTAA	0.137

# (next part)

row,Sequence,PBM E-score
1,ACTATGCG,-0.0457
2,CTCGCATC,0.0308
3,ATGACCTC,-0.205
4,AATGGTCT,-0.067
5,AGCATGAA,-0.132
6,ACTCAGCG,-0.0907
7,GGGCAAGA,0.106
8,GAGTAGGA,-0.143
9,CAACTAGA,0.025
10,AAGATATC,0.001
11,CTATTTGC,-0.142
12,CCTCGTTA,-0.0533
13,GCGGCTTA,0.025
14,GTCAAATA,0.0627
15,CGCACTTC,-0.0608
16,AAATTACA,0.185
17,CTTATATA,0.236
18,AGGGGAAA,-0.12
19,AACTGCGC,-0.0695
20,CCGTGACG,0.0625
21,AATTGGCG,0.0309
22,GATGATGA,0.01
23,GTAGCCAC,-0.197
24,AAGATTTG,0.0837
25,CAACGTCC,-0.146

row,Sequence,PBM E-score
1,AAGATTGT,0.0121
2,ATTACTCC,0.19
3,ATCAGGCG,-0.0829
4,AACCCTTG,-0.212
5,ATAACCGC,0.136
6,AATGCACA,-0.0124
7,AGCTAATA,0.0275
8,CATCGGAA,0.278
9,CATAAACA,0.162
10,ACAGGTCT,-0.135
11,GTGGAAAC,0.0343
12,CTAGGTTA,0.0792
13,GAGTACAC,-0.0358
14,CGTTTAGC,0.0556
15,AAATTGAG,-0.0886
16,ATTAGCGG,-0.00338
17,CTAGACTA,-0.13
18,CTAGGGGC,-0.361
19,CTTAAACA,0.121
20,GCCAGTAC,-0.109
21,GACTGGAC,-0.141
22,ATCGAGGG,-0.0814
23,ACTACTGG,-0.297
24,CTGTCAGC,-0.0746
25,CGCAACCC,-0.0396

row,Sequence,PBM E-score
1,CGAATGCC,-0.121
2,CCTCATCG,-0.0318
3,CTTTAGTC,-0.0848
4,ATGCCGCG,0.217
5,GAGGTAGA,-0.0651
6,GACTGGCC,-0.138
7,CCACGTGC,-0.146
8,GCATCAAA,0.155
9,AAGACTAC,-0.131
10,ATAGACTA,-0.0358
11,CCCACTAC,-0.0137
12,CATCTACA,-0.0751
13,AAGCAAGT,-0.0405
14,ATCCAAGC,-0.319
15,AACACGGG,-0.0313
16,GGGTCATA,-0.132
17,CCGTAAGC,0.00668
18,ACAAATCC,0.0981
19,GTGGTCGA,-0.337
20,AGACGCAC,-0.0804
21,GGCGGCTA,0.0873
22,CCTCGCCA,-0.343

# From the supplement of paper PMC3334620
